These are yes or no findings as the source states them, for the method shown. Binding seen in cells or lysates may run through a third protein. For part of these data: A result given as binding can be weak or reduced; the word gives no strength.
Experiments:
FZD1 [1] = assay: co-IP, immunoblot (FIG. 3G)
FZD2 [2] = assay: co-IP, immunoblot (FIG. 3G)
FZD3 [3] = assay: co-IP, immunoblot (FIG. 3G)
FZD4 [4] = assay: co-IP, immunoblot (FIG. 3G)
FZD6 [5] = assay: co-IP, immunoblot (FIG. 3G)
FZD7 [6] = assay: co-IP, immunoblot (FIG. 3G)
FZD8 [7] = assay: co-IP, immunoblot (FIG. 3G)
SMO = assay: co-IP, immunoblot (FIG. 3G)
FZD1 [8] = assay: co-IP, immunoblot (recap of FIG. 3G)
FZD2 [9] = assay: co-IP, immunoblot (recap of FIG. 3G)
FZD3 [10] = assay: co-IP, immunoblot (recap of FIG. 3G)
FZD4 [11] = assay: co-IP, immunoblot (recap of FIG. 3G)
FZD6 [12] = assay: co-IP, immunoblot (recap of FIG. 3G)
FZD7 [13] = assay: co-IP, immunoblot (recap of FIG. 3G)
FZD8 [14] = assay: co-IP, immunoblot (recap of FIG. 3G)

B1: TMEM79 (protein, not shown: small tags and cut ends)
chain: MTEPETLALLDMKEPETPEKSPPQALVLQSEEEGGTESPGTESLRVGSSVGSPIVREGPEDGPDSTISEAATLPWGTDPHPSAPLPDPPGWRDIEPEPLESEAPTKSEEPFKEDANLLPEKTVRAFVPIDLQCIERKPQEERILHRDAGPGELRNFLPARLSHPEPPERKWAEAVVRPPGRSCGGCGSCGGREALRAVASVVAALIFFPCLLYGAYAFLPFDAPRLPTMSSRLVYTLRCGVFATFPIVLGLLVYGLSLLCFSALRPFGEPRREVEIHRQYVAQSVQLFILYFFNLAVLSTYLPQDTLKLLPLLTGLFAISRLIYWLTFAVGRSFRGFGYGLTFLPLLAMLVWNLYYMFVVEPERMLTASESRLDYPDHARSVSDYRPRSWG
- binding (FZD1 [1]): binds
- binding (FZD2 [2]): binds
- binding (FZD3 [3]): binds
- binding (FZD4 [4]): binds
- binding (FZD6 [5]): binds
- binding (FZD7 [6]): binds
- binding (FZD8 [7]): binds
- binding (SMO): no binding
- binding (FZD1 [8]): binds
- binding (FZD2 [9]): binds
- binding (FZD3 [10]): binds
- binding (FZD4 [11]): binds
- binding (FZD6 [12]): binds
- binding (FZD7 [13]): binds
- binding (FZD8 [14]): binds
